Data: patent US11666561B2, “Compounds for use in regulating follicle maturation” (AARHUS UNIVERSITET, priority 2017, dated 2023)
At least one structure is not confirmed: it was looked up by name or label, or the drawing left a doubt.

System: primordial-to-primary follicle transition
Test: In vitro organ culture of mouse ovaries with compound, H&E histology and counting of primordial, primary and secondary follicles
Conditions: marked (ongoing)
Procedure: Ovaries obtained from mice were washed twice with culture medium. Antagonists or agonists to be tested were dissolved in suitable solvents and added to the medium. As a control medium comprising solvent without the antagonist or agonist was used. One of the ovaries was cultured in a control medium and another was cultured with the antagonist or agonist. The tested antagonists or agonists and their concentrations are outlined in table 2.
Ovaries were incubated with antagonist at 37° C. and 5% CO2 for 24 and 96 hours, respectively (see table 3).
Cultures ovaries were fixed, embedded in paraffin and sliced microscopy. The sectioned ovaries were stained with hematoxylin and eosin (H&E) to visualize the morphology of the ovary by microscopy.
The number of primordial, primary and secondary follicles was determined, and it was determined whether the antagonist or agonist was capable of regulating folliculogenesis.
C57BL/6j×CBA F1 hybrid mice (Janvier Labs, France) were housed and bred in the animal facilities at Department of Biomedicine, Aarhus University. […]
The number of follicles at each developmental stage was counted using an inverted research microscope (DM14000B, Leica Microsystems, Germany). The follicles of every 3rd to 4th section of each ovary were counted and the distribution of follicles in the different stages in percentage was determined.

SMILES: N=C(N)NCCC[C@H](NC(=O)CCC(=O)OC[N+]1(c2cc(=O)c3cccc(-c4ccccc4)c3o2)CCOCC1)C(=O)NCC(=O)N[C@@H](CC(=O)O)C(=O)N[C@@H](CO)C(=O)[O-] [SF1126, (8S,14S,17S)-14-(carboxymethyl)-8-(3-guanidinopropyl)-17-(hydroxymethyl)-3,6,9,12,15-pentaoxo-1-(4-(4-oxo-8-phenyl-4H-chromen-2-yl)morpholino-4-ium)-2-oxa-7,10,13,16-tetraazaoctadecan-18-oate]
- Effect (Table 1): promotes
- Effect (Table 2): promotes
